# In PubChem BioAssay AID651640 (Broad Institute, 2012):
# Screen size: about 350,000 compounds; about 6,000 (1.7%) were called active. Inconclusive results, whose numbers are uncertain, are shown with a selection of clear calls. Cut-off read from the data, not from the text of the source: active = CPE inhibition above about 20% (passing the limit was not always enough); inconclusive = no clear call, values can overlap the other calls; tested in BHK-21 cells.
# Assay: protection of cells from dengue 2 killing – plate reader, single concentration, primary screen (AID 651640);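 note: 0% = median of neutral control wells and 100% = median of positive control wells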
# Details: DENV2-infected cells, cytopathic effect rescue, at 9.99 µM, active compounds read high
row,Compound,CPE inhibition
1,Cc1[nH]c2ccccc2c1C(=O)CSC(=S)N1CCOCC1,inconclusive: 24.3%
2,C#CCOCCOCCOCCNc1nc(N2CCN(C(=O)[C@H](CCC(=O)O)n3cc([C@@H](N)CCCCN)nn3)CC2)nc(N2CCN(C(=O)[C@H](CCC(=O)O)n3cc([C@@H](N)CCCCN)nn3)CC2)n1,inactive: 6.83%
3,Cc1cc(NC(=O)CSC2=NS(=O)(=O)c3cc(Cl)ccc3N2)no1,inconclusive: 29.4%
4,OC[C@@H]1[C@@H](c2ccccc2)C2(CN(Cc3nccs3)C2)N1Cc1ccccc1,active: 20%
5,C[C@@H]1CCCCO[C@@H](CN(C)S(C)(=O)=O)[C@H](C)CN([C@@H](C)CO)C(=O)c2cc(NC(=O)Cc3ccccc3)ccc2O1,active: 51.7%
6,NC(=NCc1ccccc1)NN=Cc1ccnc2ccccc12,inactive: 6.1%
7,CN(C)C(=O)c1cccc(-c2ccc3c(c2)[C@@H]2[C@@H](CCN2C(=O)C2CCOCC2)[C@H](CO)N3)c1,inactive: -2.99%
8,OC(c1ccccc1)(c1ccccc1)c1nccn1-c1ccccc1,inconclusive: 29%
9,Cc1nn(-c2ccccn2)c(N)c1N=O,inactive: -2.36%
10,C[C@H](CO)N1C[C@H](C)[C@H](CN(C)C)Oc2ncc(-c3cccnc3)cc2C1=O,inactive: 19.3%
11,Cc1nc(CCNC(=O)CC2C(=O)NCCN2CC(C)C)nc2c1CCC2 (configuration not stated),active: 43.8%
12,COC(=O)CC1=C(c2ccc([N+](=O)[O-])cc2)CCC1=O,inconclusive: 25.1%
13,COc1ccc(C(=O)N2CCCC(c3cc(C(=O)NCc4ccccc4)no3)C2)cc1 (configuration not stated),inconclusive: 24.7%
14,CO[C@H](C(=O)N(C)C[C@H]1OCc2ccccc2-c2c(n(C)c3ccccc23)C(=O)N([C@@H](C)CO)C[C@@H]1C)c1ccccc1,active: 26.4%
15,C/C=C/c1ccc2c(c1)O[C@@H](CN(C)C(=O)Nc1ccccc1)[C@H](C)CN([C@H](C)CO)S2(=O)=O,active: 27.7%
16,CCCCCCCCN1C(=O)[C@H](CC(=O)NCCC(C)C)C[C@@]2(C(=O)OCC)CCCC=C12,active: 20.1%
17,C[C@@H](NC(=O)C[C@@H]1C[C@@H]2c3cc(NC(=O)Nc4ccccc4F)ccc3O[C@@H]2[C@@H](CO)O1)c1ccccc1,inconclusive: 27.8%
18,CCCCCCCCN1C(=O)[C@@H](CC(=O)N2CCN(C(=O)C3CC3)CC2)C[C@@]2(C(=O)OC)C1=C[C@H](C1CCCC1)O[C@@H]2C,inactive: 5.91%
19,O=C(Nc1ccccc1F)N[C@H]1C=C[C@@H](CC(=O)N2CCCCC2)O[C@@H]1CO,inactive: 10.3%
20,C[C@H](CO)N1C[C@H](C)[C@@H](CN(C)C(=O)Nc2ccc(F)cc2)Oc2ccc(NS(=O)(=O)c3cn(C)cn3)cc2CC1=O,inconclusive: 21%
21,c1ccc(CSc2ncnc3c2ncn3C2CCCCO2)cc1 (configuration not stated),inconclusive: 48.4%
22,CC(=O)C[C@@H](O)CC(=O)[C@@H]1OC(=O)[C@@H](C)CCCCc2ccccc21,inconclusive: 49.7%
23,CCn1cc(S(=O)(=O)Nc2ccc3c(c2)OCCO3)cn1,inconclusive: 33.2%
24,CC(=O)c1cccc(NC(=O)C(C)OC(=O)CCc2nc3ccccc3c(=O)[nH]2)c1 (configuration not stated),inactive: 1.51%

# Filtered by structure: those above with two or more sulfur atoms (2)
row,Compound,CPE inhibition
1,Cc1[nH]c2ccccc2c1C(=O)CSC(=S)N1CCOCC1,inconclusive: 24.3%
3,Cc1cc(NC(=O)CSC2=NS(=O)(=O)c3cc(Cl)ccc3N2)no1,inconclusive: 29.4%

# (more compounds)

row,Compound,CPE inhibition
1,COc1cccc(-c2ccc([C@@H]3[C@H](CO)N(C(=O)C4CC4)C34CN(C(C)=O)C4)cc2)c1,inactive: -2.35%
2,O=c1[nH]c(C2CCCN(S(=O)(=O)c3ccccc3)C2)nc2c1nnn2Cc1ccc2c(c1)OCCO2 (configuration not stated),inconclusive: 32.7%
3,CC(C)(C)NC(=O)C(c1ccc(C#N)cc1)n1c(=O)c(-c2ccco2)nc2ccccc21 (configuration not stated),inconclusive: 35.8%
4,COc1ccc(C(=O)N2CCC3(CC2)NCCc2[nH]cnc23)cc1,inconclusive: 34.3%
5,CC=Cc1ccc2n(c1=O)C[C@@H]1[C@@H](CO)[C@H](C(=O)NC3CCCC3)N(Cc3ccccc3)[C@H]21 (mixture of isomers),inconclusive: 72%
6,Nc1c(C=C2C=CC(=O)C=C2)c(=O)nc2sc(CC(=O)N3CCOCC3)nn12,inactive: -3.35%
7,CC1(C)CC(NC(=O)c2ccc(Br)o2)CC(C)(C)N1,inconclusive: 23.7%
8,CC(=O)N1[C@H](CO)[C@H](c2ccc(-c3ccc(C#N)cc3)cc2)C12CN(C(=O)C1CC1)C2,active: 61.9%
9,O=C(C[C@@H]1C[C@@H]2c3cc(NC(=O)C4CCC4)ccc3O[C@@H]2[C@@H](CO)O1)NC1CCCC1,inconclusive: 25.7%
10,Cc1ccc(SC(=O)c2c(C)noc2-c2cc(C)on2)cc1,active: 41.4%
11,Cc1oc(-c2ccc(-c3ccccc3)cc2)nc1CN(CCO)C(C)C,inconclusive: 30.7%
12,CCOc1ccc(OCC(=O)OCC(=O)Nc2ccc3[nH]c(=O)[nH]c3c2)cc1,inconclusive: 55.6%
13,CCNC(=O)C[C@@H]1CC[C@H]2[C@@H](COC[C@H](O)CN2C(=O)CC)O1,active: 48.3%
14,Cc1cccc(OCC(=O)Nc2ccc(N3CCN(C(=O)c4ccccc4)CC3)cc2)c1C,active: 42.5%
15,CC1CCCCC12NC(=O)N(CC(=O)OCC(=O)NCc1ccc(F)cc1)C2=O (configuration not stated),inconclusive: 29.3%
16,COc1ccc(-c2oc3ccc(-c4cc(OC)c(OC)c(OC)c4)cc3c2-c2ccc(OC)nc2)cc1,active: 80.2%
17,CC[C@]1(C(=O)OC)[C@H]2C(=O)N(Cc3ccccc3)C(=O)[C@H]2[C@H]2CN=C(SCc3ccc(C(=O)OC)cc3)N21,inactive: -1.04%
18,Cc1ccc(-c2ccc3c(c2)O[C@@H](CN(C)Cc2cncnc2)[C@H](C)CN([C@@H](C)CO)S3(=O)=O)cc1,inconclusive: 28.7%
19,CN(C)C(=O)C[C@@H]1C[C@@H]2c3cc(NC(=O)Nc4ccccc4F)ccc3O[C@@H]2[C@H](CO)O1,inactive: 8.67%
20,CC1CCN(C(=O)c2ccccc2NC(=O)Cc2ccccc2)CC1,inconclusive: 80.2%
21,COc1ccc(S(=O)(=O)N(C)C[C@@H]2OCCCC[C@@H](C)Oc3ccc(NS(=O)(=O)c4ccc(C)cc4)cc3C(=O)N([C@H](C)CO)C[C@@H]2C)cc1,inconclusive: 26.6%
22,COc1cccc(N)c1,active: 171%
23,COC(=O)c1cc(NC2c3ccccc3C(=O)N2c2cccnc2)cc(C(=O)OC)c1 (configuration not stated),inconclusive: 24%
24,Cc1ccc(C(=O)NC2CCCC2)s1,inconclusive: 20.6%

# A few values from above:
# CPE inhibition with CC(C)(C)NC(=O)C(c1ccc(C#N)cc1)n1c(=O)c(-c2ccco2)nc2ccccc21 (configuration not stated) reads inconclusive: 35.8%
# CPE inhibition with CC1CCN(C(=O)c2ccccc2NC(=O)Cc2ccccc2)CC1 reads inconclusive: 80.2%

# (cont.)

row,Compound,CPE inhibition
1,CCC(=O)N1C[C@@H]2[C@H](c3ccccc31)[C@H](CO)N2Cc1cc(F)ccc1F,inconclusive: 38.8%
2,COc1ccccc1N(C)c1cc2c(c3c1ccn3C)C1CCC2C1 (configuration not stated),inactive: 5.43%
3,Cc1nn(C2CCS(=O)(=O)C2)c2nc(C3CC3)cc(C(=O)Nc3ccc(C(N)=O)cc3)c12 (configuration not stated),inconclusive: 52.3%
4,O=C(COc1cc(F)ccc1[N+](=O)[O-])Nc1ccc(N2CCOCC2)cc1,inconclusive: 21.3%
5,COc1ccc(NC(=O)CSc2n[nH]c(-c3ccccc3)n2)cc1S(N)(=O)=O,active: 52.5%
6,CCOCCCN(C)C1CCN(C(=O)c2oc3ccccc3c2NC(=O)Cc2ccc([N+](=O)[O-])cc2)CC1,inconclusive: 46%
7,C[C@H]1CCCCO[C@H](CN(C)C(=O)Nc2ccc3c(c2)OCO3)[C@@H](C)CN([C@@H](C)CO)C(=O)c2cc(NC(=O)Nc3ccc(C(F)(F)F)cc3)ccc2O1,inconclusive: 35.1%
8,CSc1ccc(CNC(=O)C2(C)CCCN2CC(C)C)cc1 (configuration not stated),inconclusive: 23.9%
9,C[C@H](CO)N1C[C@H](C)[C@H](CN(C)C(=O)Nc2ccc(F)cc2)Oc2c(NC(=O)c3cnccn3)cccc2C1=O,active: 29.3%
10,C[C@H](CO)N1C[C@H](C)[C@H](CN(C)C(=O)CN(C)C)Oc2cc(-c3cncnc3)ccc2S1(=O)=O,inconclusive: 21.9%
11,C[C@@H]1CN([C@@H](C)CO)C(=O)c2cc(C3=CCCC3)cnc2O[C@H]1CN(C)Cc1cccc(F)c1,inactive: -7.7%
12,O=C(O)COCC(=O)NCc1csc2ccccc12,inconclusive: 21.1%
13,COc1ccc2c3c(n(C)c2c1)[C@@H](CO)N(C(=O)c1cccc(F)c1)CC31CN(C(=O)c2cccc(F)c2)C1,active: 34.2%
14,COc1ccc(CN2C[C@@H](CO)O[C@@H](n3cnc4c(NCCO)ncnc43)C2)cc1,inconclusive: 37.7%
15,COC(=O)C[C@@H]1CC[C@H]2[C@H](COc3ccc(NC(=O)c4ccc(OC)cc4)cc3C(=O)N2C)O1,inconclusive: 22.7%
16,C[C@H](CO)N1C[C@H](C)[C@@H](CN(C)C(=O)NC2CCCCC2)Oc2ccc(NC(=O)Nc3ccc(F)cc3)cc2CC1=O,inactive: 0.992%
17,c1ccc(-c2cn(C[C@H]3CC[C@@H]([C@@H]4CC[C@H](Cn5cc(-c6ccccc6)nn5)O4)O3)nn2)cc1,active: 33.9%
18,Cc1ccc(C)c(OCC(O)CNC2CCCC2)c1 (configuration not stated),inconclusive: 20.4%
19,COc1ccc(CN(C)C[C@@H]2OCCCC[C@H](C)Oc3ccc(NS(C)(=O)=O)cc3C(=O)N([C@@H](C)CO)C[C@H]2C)cc1,inconclusive: 82.9%
20,CCCSc1ccc([C@H]2N[C@@](Cc3ccccc3)(C(=O)OC)[C@H]3C(=O)N(CC)C(=O)[C@@H]23)cc1,inconclusive: 30.6%
21,CC(CNC(=O)Cn1ccc(NC(=O)OCc2ccccc2)nc1=O)c1ccccc1 (configuration not stated),active: 35.8%
22,O=C(Cn1nc(C(=O)O)c2ccccc2c1=O)Nc1cc(Cl)ccc1-n1cncn1,inconclusive: 53.3%
23,COc1ccccc1NS(=O)(=O)c1ccc(C(=O)NCCCn2ccnc2)cc1,inactive: -2.81%
24,COCC(=O)Nc1ccc2c(c1)C(=O)N(C)[C@@H]1CC[C@H](CC(=O)NCc3ccccc3F)O[C@H]1CO2,inconclusive: 36.8%
